No constants are given. Whether binding was seen depends on the method and setting. Binding seen in cells or lysates may run through a third protein. A result given as binding can be weak or reduced; the word gives no strength.
Molecular target: NEK10-flag T812A mutant (human) (UniProt Q6ZWH5)
Assay: co-IP; cells co-transfected with NEK10-flag (wild type or T812A), HSP70-V5 and CHIP-myc, or endogenous HSP70 and CHIP; anti-flag IP, control IgG; MG132 20 µM 8 h, or serum deprived 24 h and untreated or stimulated with FSK; immunoblot

By UniProt entry, the sequences of proteins in these tests, tags left out. Where a name states a change or a piece, a line headed by the entry shows the natural chain unless it says otherwise.
UniProt Q6ZWH5: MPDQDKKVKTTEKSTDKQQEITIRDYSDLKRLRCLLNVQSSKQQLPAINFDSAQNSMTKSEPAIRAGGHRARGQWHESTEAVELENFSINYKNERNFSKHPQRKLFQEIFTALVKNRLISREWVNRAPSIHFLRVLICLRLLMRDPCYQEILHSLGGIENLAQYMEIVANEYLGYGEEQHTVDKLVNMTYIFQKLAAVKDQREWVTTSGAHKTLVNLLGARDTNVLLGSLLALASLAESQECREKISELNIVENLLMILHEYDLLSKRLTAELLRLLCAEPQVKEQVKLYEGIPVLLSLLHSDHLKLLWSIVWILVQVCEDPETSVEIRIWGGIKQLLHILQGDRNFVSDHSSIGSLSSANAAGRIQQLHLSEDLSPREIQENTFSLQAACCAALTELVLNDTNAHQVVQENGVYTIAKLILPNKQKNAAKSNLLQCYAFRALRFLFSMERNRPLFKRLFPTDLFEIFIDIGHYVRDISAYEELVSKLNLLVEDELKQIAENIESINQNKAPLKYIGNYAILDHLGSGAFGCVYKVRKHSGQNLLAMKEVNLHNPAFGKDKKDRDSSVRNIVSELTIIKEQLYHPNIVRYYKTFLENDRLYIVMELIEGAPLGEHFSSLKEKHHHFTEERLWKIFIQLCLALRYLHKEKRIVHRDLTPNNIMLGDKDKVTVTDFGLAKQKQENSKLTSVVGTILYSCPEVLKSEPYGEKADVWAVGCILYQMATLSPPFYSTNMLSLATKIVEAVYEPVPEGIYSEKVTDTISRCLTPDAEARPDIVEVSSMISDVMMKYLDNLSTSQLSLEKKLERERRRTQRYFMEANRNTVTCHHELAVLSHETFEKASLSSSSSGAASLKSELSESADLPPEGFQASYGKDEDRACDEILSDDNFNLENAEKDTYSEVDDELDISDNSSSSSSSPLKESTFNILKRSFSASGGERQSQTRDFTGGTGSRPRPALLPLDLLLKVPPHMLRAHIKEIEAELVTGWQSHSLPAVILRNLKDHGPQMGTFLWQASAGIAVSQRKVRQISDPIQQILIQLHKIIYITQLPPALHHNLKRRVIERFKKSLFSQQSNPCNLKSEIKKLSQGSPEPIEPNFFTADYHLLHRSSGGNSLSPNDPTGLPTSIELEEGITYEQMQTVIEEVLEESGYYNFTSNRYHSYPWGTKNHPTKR
UniProt Q9UNE7: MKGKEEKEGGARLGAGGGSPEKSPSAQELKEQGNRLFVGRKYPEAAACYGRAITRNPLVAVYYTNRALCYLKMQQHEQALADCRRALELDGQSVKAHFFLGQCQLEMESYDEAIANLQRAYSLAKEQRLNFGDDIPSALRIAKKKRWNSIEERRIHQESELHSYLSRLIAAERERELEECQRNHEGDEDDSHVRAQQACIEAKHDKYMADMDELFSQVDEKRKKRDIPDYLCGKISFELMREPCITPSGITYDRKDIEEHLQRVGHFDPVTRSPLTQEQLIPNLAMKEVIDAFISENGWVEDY

binding: binds
Substance: CHIP-myc (wild type) (from UniProt Q9UNE7 1-303) (enzyme)

From paper PMC5964327
